PubChem BioAssay AID1224826, NIAID, 2016
Screen: 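Genes that change LPS-induced Tnf promoter activity in mouse macrophages when knocked down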 (primary screen). Cell system: RAW264.7 G9 macrophages from mouse bearing reporters for p65 (GFP) and the Tnf promoter (mCherry). Knock-down reagent: siRNA pool against mouse genes, 100 nM. Time to read-out: 16 h of LPS stimulation, after 2 days of siRNA transfection. Challenge: bacterial lipopolysaccharide (Salmonella minnesota R595), 10 ng/ml. Read-out: 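Imaged Tnf reporter mCherry in nuclei, minus background, normalised per plate to the median and expressed as robust z-scores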. Direction: Tnf reporter robust z-score: higher = stronger Tnf promoter reporter signal after LPS; Tnf reporter intensity: higher = stronger Tnf promoter reporter signal. Call rule: 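a well counts as active at a score of -1.3 or below (Tlr4 knock-down control median) or above 3 (raised signal); controls and wells holding fewer than 50 cells are excluded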. Meaning of the calls: active = Tnf reporter clearly lowered or raised; inactive = no clear change in Tnf reporter.
Shown is a random part of about 17,000 reagents tested. About 1,110 of all reagents (6.6%) were called active. 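Active means lowered or raised reporter signal; replicate intensities are raw and not normalised per plate.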

| gene knocked down | PubChem SID | Tnf reporter robust z-score | fewer than 50 cells in well | Tnf reporter intensity, replicate 1 | Tnf reporter intensity, replicate 2 | call |
| --- | --- | --- | --- | --- | --- | --- |
| Hoxc5 | SID315467270 | -0.12 | enough cells in well | 239 | 172 | inactive |
| Tmem214 | SID315473636 | 1.96 | enough cells in well | 340 | 154 | inactive |
| Abhd16b | SID315479588 | – | fewer than 50 cells per well; well left out of calls | 173 | 109 | inactive |
| Morf4l1 | SID315469669 | 0.32 | enough cells in well | 250 | 118 | inactive |
| Cdh2 | SID315465900 | -0.6 | enough cells in well | 171 | 190 | inactive |
| Akr1c12 | SID315481987 | -0.48 | enough cells in well | 161 | 168 | inactive |
| Mvb12a | SID315474769 | – | fewer than 50 cells per well; well left out of calls | 177 | 38 | inactive |
| Ext2 | SID315466590 | 0.51 | enough cells in well | 284 | 254 | inactive |
| Zfp473 | SID315479727 | -0.52 | enough cells in well | 139 | 159 | inactive |
| Dpep3 | SID315474352 | 0.3 | enough cells in well | 243 | 240 | inactive |
| Smarcd1 | SID315475869 | -0.02 | enough cells in well | 229 | 254 | inactive |

3 successive entries from above:
| gene knocked down | PubChem SID | Tnf reporter robust z-score | fewer than 50 cells in well | Tnf reporter intensity, replicate 1 | Tnf reporter intensity, replicate 2 | call |
| --- | --- | --- | --- | --- | --- | --- |
| Zfp473 | SID315479727 | -0.52 | enough cells in well | 139 | 159 | inactive |
| Dpep3 | SID315474352 | 0.3 | enough cells in well | 243 | 240 | inactive |
| Smarcd1 | SID315475869 | -0.02 | enough cells in well | 229 | 254 | inactive |

The list goes on.
| gene knocked down | PubChem SID | Tnf reporter robust z-score | fewer than 50 cells in well | Tnf reporter intensity, replicate 1 | Tnf reporter intensity, replicate 2 | call |
| --- | --- | --- | --- | --- | --- | --- |
| Stat5a | SID315469487 | 0.75 | enough cells in well | 363 | 259 | inactive |
| Pllp | SID315473232 | 0.11 | enough cells in well | 154 | 69.4 | inactive |
| Vmn1r211 | SID315477351 | 0.93 | enough cells in well | 155 | 93.6 | inactive |
| Riok1 | SID315474221 | 1.19 | enough cells in well | 260 | 239 | inactive |
| 4933409K07Rik | SID315476743 | – | fewer than 50 cells per well; well left out of calls | 257 | 117 | inactive |
| Apcdd1 | SID315481970 | -0.14 | enough cells in well | 146 | 164 | inactive |
| Wtip | SID315476286 | 0.63 | enough cells in well | 232 | 244 | inactive |
| Stxbp2 | SID315469521 | -2.26 | enough cells in well | 28.9 | 24.4 | active |
| Strip1 | SID315478734 | -0.19 | enough cells in well | 126 | 139 | inactive |
| Poglut1 | SID315478329 | 1 | enough cells in well | 244 | 249 | inactive |
| Cacnb1 | SID315465715 | 0.05 | enough cells in well | 179 | 164 | inactive |
| Krt25 | SID315474137 | -0.11 | enough cells in well | 167 | 58.9 | inactive |
| Defa6 | SID315466310 | 0.88 | enough cells in well | 241 | 150 | inactive |
